According to the supplement of paper PMC7661543:
± gives the standard deviation of the averaged measurements. The effect of the compound repeats well; differences between the knockouts mostly do not.

Tested on: BT-20
Assay: relative cell number vs DMSO control (72 h) (% of DMSO); higher = less growth inhibition (more cells)
Procedure: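 QMAP-Seq: a pool of 5 breast cancer cell lines (ZR-75-1, SKBR3, HCC-38, MDA-MB-231, BT-20), each carrying 12 doxycycline-inducible Cas9 sgRNA perturbations (11 knockouts plus non-targeting sgNT), was treated with compounds for 72 h at four 10-fold doses (10 nM-10 uM or 1 nM-1 uM range). Barcodes were amplified and sequenced, and cell number was interpolated from 293T spike-in standard curves. The result is expressed as % of the median of DMSO wells. Two biological replicates.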

[1] = sgRNA knockout: sgATF3, 1000 nM
[2] = sgRNA knockout: sgATF3, 10000 nM
[3] = sgRNA knockout: sgATF4, 1000 nM
[4] = sgRNA knockout: sgATF4, 10000 nM
[5] = sgRNA knockout: sgATF6, 1000 nM
[6] = sgRNA knockout: sgATF6, 10000 nM
[7] = sgRNA knockout: sgATG7, 1000 nM
[8] = sgRNA knockout: sgATG7, 10000 nM
[9] = sgRNA knockout: sgERN1, 1000 nM
[10] = sgRNA knockout: sgERN1, 10000 nM
[11] = sgRNA knockout: sgHSF1, 1000 nM
[12] = sgRNA knockout: sgHSF1, 10000 nM
[13] = sgRNA knockout: sgHSF2, 1000 nM
[14] = sgRNA knockout: sgHSF2, 10000 nM
[15] = sgRNA knockout: sgKEAP1, 100 nM
[16] = sgRNA knockout: sgKEAP1, 1000 nM
[17] = sgRNA knockout: sgKEAP1, 10000 nM
[18] = sgRNA knockout: sgNFE2L2, 10 nM
[19] = sgRNA knockout: sgNFE2L2, 100 nM
[20] = sgRNA knockout: sgNFE2L2, 1000 nM
[21] = sgRNA knockout: sgNFE2L2, 10000 nM
[22] = sgRNA knockout: sgSLC35F2, 10 nM
[23] = sgRNA knockout: sgSLC35F2, 100 nM
[24] = sgRNA knockout: sgSLC35F2, 1000 nM
[25] = sgRNA knockout: sgSLC35F2, 10000 nM
[26] = sgRNA knockout: sgXBP1, 1000 nM
[27] = sgRNA knockout: sgXBP1, 10000 nM

N[C@@H](CC(=O)N1CCn2c(nnc2C(F)(F)F)C1)Cc1cc(F)c(F)cc1F [Sitagliptin]
relative cell number (sgRNA knockout: sgATF3, 10 nM): 110 ± 14
relative cell number (sgRNA knockout: sgATF3, 100 nM): 103 ± 5.1
relative cell number [1]: 96.2 ± 5.1
relative cell number [2]: 101 ± 5
relative cell number (sgRNA knockout: sgATF4, 10 nM): 92.8 ± 34
relative cell number (sgRNA knockout: sgATF4, 100 nM): 113 ± 11
relative cell number [3]: 109.3 ± 0.64
relative cell number [4]: 108 ± 6
relative cell number (sgRNA knockout: sgATF6, 10 nM): 117 ± 35
relative cell number (sgRNA knockout: sgATF6, 100 nM): 127 ± 3
relative cell number [5]: 101 ± 19
relative cell number [6]: 105 ± 8.1
relative cell number (sgRNA knockout: sgATG7, 10 nM): 118 ± 29
relative cell number (sgRNA knockout: sgATG7, 100 nM): 99.4 ± 9.7
relative cell number [7]: 105 ± 4.1
relative cell number [8]: 82.9 ± 23
relative cell number (sgRNA knockout: sgERN1, 10 nM): 107 ± 44
relative cell number (sgRNA knockout: sgERN1, 100 nM): 94.9 ± 17
relative cell number [9]: 101 ± 5.2
relative cell number [10]: 101 ± 12
relative cell number (sgRNA knockout: sgHSF1, 10 nM): 112 ± 39
relative cell number (sgRNA knockout: sgHSF1, 100 nM): 105.4 ± 0.52
relative cell number [11]: 108 ± 6.5
relative cell number [12]: 99 ± 19
relative cell number (sgRNA knockout: sgHSF2, 10 nM): 104 ± 19
relative cell number (sgRNA knockout: sgHSF2, 100 nM): 115 ± 3.1
relative cell number [13]: 133 ± 23
relative cell number [14]: 94.9 ± 9.1
relative cell number (sgRNA knockout: sgKEAP1, 10 nM): 107 ± 39
relative cell number [15]: 93.5 ± 9.4
relative cell number [16]: 102.7 ± 0.71
relative cell number [17]: 101 ± 9.8
relative cell number [18]: 114 ± 35
relative cell number [19]: 113 ± 26
relative cell number [20]: 110 ± 7.8
relative cell number [21]: 92.3 ± 9.6
relative cell number [22]: 117 ± 13
relative cell number [23]: 97.7 ± 13
relative cell number [24]: 112 ± 18
relative cell number [25]: 100 ± 9.5
relative cell number (sgRNA knockout: sgXBP1, 10 nM): 110 ± 41
relative cell number (sgRNA knockout: sgXBP1, 100 nM): 105 ± 13
relative cell number [26]: 113 ± 1.2
relative cell number [27]: 95.4 ± 2.4

CNC(=O)c1cc(Oc2ccc(NC(=O)Nc3ccc(Cl)c(C(F)(F)F)c3)cc2)ccn1 [Sorafenib]
relative cell number (sgRNA knockout: sgATF3, 10 nM): 105.6 ± 0.3
relative cell number (sgRNA knockout: sgATF3, 100 nM): 111 ± 16
relative cell number [1]: 105 ± 21
relative cell number [2]: 43.5 ± 6.1
relative cell number (sgRNA knockout: sgATF4, 10 nM): 101 ± 5.6
relative cell number (sgRNA knockout: sgATF4, 100 nM): 113 ± 2.5
relative cell number [3]: 94.6 ± 16
relative cell number [4]: 50 ± 4.1
relative cell number (sgRNA knockout: sgATF6, 10 nM): 119 ± 23
relative cell number (sgRNA knockout: sgATF6, 100 nM): 113 ± 5.5
relative cell number [5]: 112 ± 17
relative cell number [6]: 56.9 ± 2.4
relative cell number (sgRNA knockout: sgATG7, 10 nM): 95.1 ± 8.1
relative cell number (sgRNA knockout: sgATG7, 100 nM): 110.8 ± 0.25
relative cell number [7]: 113 ± 6.6
relative cell number [8]: 47.1 ± 8.6
relative cell number (sgRNA knockout: sgERN1, 10 nM): 84.4 ± 11
relative cell number (sgRNA knockout: sgERN1, 100 nM): 107 ± 6.1
relative cell number [9]: 109 ± 1.2
relative cell number [10]: 55.9 ± 2.8
relative cell number (sgRNA knockout: sgHSF1, 10 nM): 97.6 ± 7.9
relative cell number (sgRNA knockout: sgHSF1, 100 nM): 104 ± 16
relative cell number [11]: 107 ± 26
relative cell number [12]: 52.8 ± 2.2
relative cell number (sgRNA knockout: sgHSF2, 10 nM): 90.1 ± 12
relative cell number (sgRNA knockout: sgHSF2, 100 nM): 117 ± 5.9
relative cell number [13]: 106 ± 43
relative cell number [14]: 59.2 ± 16
relative cell number (sgRNA knockout: sgKEAP1, 10 nM): 99.7 ± 3.2
relative cell number [15]: 110 ± 38
relative cell number [16]: 120 ± 12
relative cell number [17]: 45.6 ± 14
relative cell number [18]: 82.3 ± 13
relative cell number [19]: 101 ± 2.6
relative cell number [20]: 108 ± 7.8
relative cell number [21]: 49.7 ± 1.9
relative cell number [22]: 95.2 ± 39
relative cell number [23]: 103 ± 15
relative cell number [24]: 102 ± 12
relative cell number [25]: 54.8 ± 1.3
relative cell number (sgRNA knockout: sgXBP1, 10 nM): 89.4 ± 17
relative cell number (sgRNA knockout: sgXBP1, 100 nM): 102 ± 2.7
relative cell number [26]: 106 ± 1.6
relative cell number [27]: 53.4 ± 4.5
